Measurements from PubChem BioAssay AID694 (Emory University Molecular Libraries Screening Center, 2007).
Where “and” joins values, the source holds several entries; their conditions need not be identical. Identical values can stand only once. The list shows a part of the results. Further columns of the screen follow, without active or inactive calls.

The chains behind the UniProt entries cited, without tags or fusion partners.
UniProt P03372, whole entry, looked up: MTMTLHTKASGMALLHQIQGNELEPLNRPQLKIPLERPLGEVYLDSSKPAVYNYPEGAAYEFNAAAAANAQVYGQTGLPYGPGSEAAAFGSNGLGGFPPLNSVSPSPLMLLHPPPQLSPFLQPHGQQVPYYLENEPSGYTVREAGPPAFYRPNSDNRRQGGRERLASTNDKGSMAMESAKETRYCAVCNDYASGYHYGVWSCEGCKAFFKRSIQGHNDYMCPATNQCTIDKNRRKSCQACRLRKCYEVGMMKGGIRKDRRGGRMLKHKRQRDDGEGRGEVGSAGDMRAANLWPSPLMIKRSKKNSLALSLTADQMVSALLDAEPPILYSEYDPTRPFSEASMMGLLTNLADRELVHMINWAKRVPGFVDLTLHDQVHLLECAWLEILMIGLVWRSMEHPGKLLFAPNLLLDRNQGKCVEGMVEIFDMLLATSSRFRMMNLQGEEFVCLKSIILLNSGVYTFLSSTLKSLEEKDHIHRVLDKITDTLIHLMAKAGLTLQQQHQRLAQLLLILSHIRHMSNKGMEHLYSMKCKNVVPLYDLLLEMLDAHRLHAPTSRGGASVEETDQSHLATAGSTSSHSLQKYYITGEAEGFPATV

biological target: Estrogen receptor (Homo sapiens) (UniProt P03372); assay: blockers of coactivator recruitment to ERα – biochemical, LOPAC library, TR-FRET, primary screen (AID 694); conditions: TR-FRET ERalpha-coactivator peptide binding, at 15 µM, stronger effect = higher value;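 also: receptor was agonist-bound with estradiol present during the assay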

| Compound | inhibition |
| --- | --- |
| Cn1cc(C(=O)OCC2CCN(CCNS(C)(=O)=O)CC2)c2ccccc21 | -1.85% |
| COc1cc2nc(N3CCN(C(=O)C4CCCO4)CC3)nc(N)c2cc1OC (stereo unspecified) | -0.94% |
| COc1ccc(CCN(C)CCc2ccc(OC)c(OC)c2)cc1OC | 5.81% |
| Cc1ccccc1/C=C/C1=NCCN1 | -3.56% |
| O=c1[nH]cc(F)c(=O)[nH]1 | -1.46% |
| COC(=O)C1=C(C)NC(C)=C(C(=O)OC)C1c1ccccc1[N+](=O)[O-] | 3.28% |
| CCCCCCCCCCCCCCCCCCOC[C@H](COP(=O)([O-])OCC[N+](C)(C)C)OC | -2.04% |
| CNc1cc(NS(=O)(=O)c2ccc(N)cc2)nc(NC)n1 | -6.18% |
| CC1=C(C)C(=O)C(CCCCC#CCCCC#CCO)=C(C)C1=O | -0.77% |
| CC(N)(Cc1ccc(O)cc1)C(=O)O (stereo unspecified) | -6.26% |
| O=C(O)[C@@H]1C[C@@H](C(=O)O)N1 | -2.41% |
| N[C@H](C(=O)O)[C@H](O)C(=O)O | -0.26% |
| CN=C(NC#N)NCCSCc1nc[nH]c1C | 1.03% |
| N=C(N)SCCc1cnc[nH]1 | -3.53% |
| CC(=O)NNC(=O)N1Cc2ccccc2Oc2ccc(Cl)cc21 | 4.78% |
| CCCCCCN(CCCCCC)C(=O)Cc1c(-c2ccc(F)cc2)[nH]c2ccccc12 | 5.53% |
| CCN(CC)CCNC(=O)c1ccc(NC(C)=O)cc1 | -4.84% |
| CCCC[C@@]1(C2CCCC2)Cc2cc(OCC(=O)O)c(Cl)c(Cl)c2C1=O | 3.63% |
| CCN(CC)CCCC(C)Nc1ccnc2cc(Cl)ccc12 (stereo unspecified) | 1.7% |
| C[C@](N)(Cc1ccc(O)cc1)C(=O)O | -5.82% |
| CNCCNS(=O)(=O)c1cccc2cnccc12 | 1.96% |
| c1ccc2c(c1)CCCC2C1=NCCN1 (stereo unspecified) | -2.37% |
| CN=c1nc(-c2ccccc2)n(-c2ccccc2)s1 | 6.98% |
| O=C(O)C1CCNCC1 | -4.19% |

| Compound | inhibition |
| --- | --- |
| CC1(C)CCC(NC(=O)[C@@H](N)CCC(=O)O)CC1 | 0.14% |
| CC1(C)CCC=[N+]1[O-] | -4.31% |
| N#C/C(=C\c1ccc(O)c(O)c1)C(=O)Nc1ccccc1 | 6.56% |
| CCCCCCCCCCCCCCCC(=O)NCC(COP(=O)([O-])OCC[N+](C)(C)C)OCC (stereo unspecified) | 31.9% |
| O=C1NC(=O)C(c2ccccc2[N+](=O)[O-])=C1Nc1ccc(O)c(Cl)c1 | -0.74% |
| Cc1ccc(N(CC2=NCCN2)c2cccc(O)c2)cc1 | 5.88% |
| O=C(O)CCc1nc(-c2ccccc2)c(-c2ccccc2)o1 | 4.11% |
| Clc1ccc2c(c1)C(N1CCNCC1)=Nc1ccccc1O2 | 0.16% |
| NCCCCC(=O)O | -3.39% |
| OCCN1CCN(CCCN2c3ccccc3Sc3ccc(C(F)(F)F)cc32)CC1 | 9.29% |
| CC(C(=O)O)c1ccc(CC2CCCC2=O)cc1 (stereo unspecified) | 1.71% |
| CCOC(=O)N1CCC(=C2c3ccc(Cl)cc3CCc3cccnc32)CC1 | -1.9% |
| CCCCN1CCC(n2c(=O)[nH]c3ccccc32)CC1 | 0.6% |
| O=C(OCCN1CCOCC1)C1(c2ccccc2)CCCCC1 | 0.17% |
| C[C@]12CCC(=O)C=C1CC[C@@H]1[C@@H]2C(=O)C[C@@]2(C)[C@H]1CC[C@]2(O)C(=O)CO | 0.25% |
| COCCCC/C(=N\OCCN)c1ccc(C(F)(F)F)cc1 | 2.18% |
| CN1CCN(C2=Nc3ccccc3Oc3ccc(Cl)cc32)CC1 | -1.22% |
| CCN(CC)CCOC(=O)C1(C2CCCCC2)CCCCC1 | -8.91% |
| C#CC(N)CCC(=O)O (stereo unspecified) | 0.63% |
| COC(=O)C1=C(C)NC(C)=C([N+](=O)[O-])C1c1ccccc1C(F)(F)F (stereo unspecified) | -2.69% |
| Cc1cn[nH]c1 | 16% |
| OC[C@H]1O[C@@H](n2cnc3c(NCCc4ccccc4)ncnc32)C(O)[C@H]1O (stereo partly specified) | 1.69% |
| C=CC(N)CCC(=O)O (stereo unspecified) | 0.25% |
| NNCCc1ccccc1 | -6.26% |

| Compound | inhibition |
| --- | --- |
| NC1(C(=O)O)CCCCC1 | -2.67% |
| COc1ccc(-c2ccc(N)[n+](CCCC(=O)O)n2)cc1 | -1.55% |
| CCn1c(=O)c2[nH]c(-c3ccccc3)nc2n(CC)c1=O | -1.75% |
| N#Cc1c(-c2ccccc2)no[n+]1[O-] | -0.29% |
| CN1CCC(=C2c3ccccc3C=Cc3ccccc32)CC1 | -3.96% |
| CN1CCN(CC/C=C2/c3ccccc3Sc3ccc(S(=O)(=O)N(C)C)cc32)CC1 | 6.1% |
| CC(C)(C=O)Cc1cc(C(C)(C)C)c(O)c(C(C)(C)C)c1 | 2.47% |
| CC(/C=C/c1cccc(Oc2ccc(F)cc2)c1)N(O)C(N)=O (stereo unspecified) | 2.1% |
| c1ccc([C@H]2CN3CCSC3=N2)cc1 | 3.3% |
| Cc1ccc([N+](=O)[O-])cc1S(=O)(=O)N(C)C | -0.41% |
| O=[N+]([O-])c1cccc2cn[nH]c12 | -4.86% |
| COc1ccccc1OCC(O)CN1CCN(CC(=O)Nc2c(C)cccc2C)CC1 (stereo unspecified) | -5.46% |
| Nc1ncnc2c1c(-c1ccc(Oc3ccccc3)cc1)cn2C1CCCC1 | 0.56% |
| C=CC1(C)CC(=O)C2(O)C(C)(O1)C(OC(C)=O)C(O)C1C(C)(C)CCC(O)C12C (stereo unspecified) | 2.99% |
| COc1cc2c(cc1C(F)(F)F)N(C(=O)Nc1cc(F)cc(-c3cccnc3)c1)CC2 | 2.11% |
| CCC(C)N(C)C(=O)c1cc2ccccc2c(-c2ccccc2Cl)n1 (stereo unspecified) | -1.26% |
| Nc1nc2ccc(Cl)cc2c2nc(-c3ccco3)nn12 | 1.19% |
| CCC(CO)Nc1nc(NCc2ccccc2)c2ncn(C(C)C)c2n1 (stereo unspecified) | 0.75% |
| O=C(/C=C/c1ccc(O)c(O)c1)OCCc1ccccc1 | -1.26% |
| CCn1cc(C(=O)O)c(=O)c2ccc(Cc3ccccc3)nc21 | 2.86% |
| CC[C@H](C)C(=O)O[C@H]1CCC=C2C=C[C@H](C)[C@H](CC[C@@H]3C[C@@H](O)CC(=O)O3)[C@H]21 | -0.41% |
| CC(=O)[C@]1(O)Cc2c(O)c3c(c(O)c2[C@@H](O[C@H]2C[C@H](N)[C@H](O)[C@H](C)O2)C1)C(=O)c1ccccc1C3=O | -11.1% |
| CN1CCN(CCCN2c3ccccc3Sc3ccc(Cl)cc32)CC1 | 9.97% |
| Cc1ccc(Cl)c(Nc2ccccc2C(=O)O)c1Cl | -6.42% |

| Compound | inhibition |
| --- | --- |
| CCn1nc(C(=O)O)c(=O)c2cc3c(cc21)OCO3 | -6.21% |
| Cc1cc(C)c(/C=C2\C(=O)Nc3ccccc32)[nH]1 | -3.95% |
| CCCC(=O)NCCc1c2n(c3ccc(OC)cc13)CCCc1ccccc1-2 | -0.15% |
| CCn1ccnc1CC1COc2ccccc2O1 (stereo unspecified) | -0.18% |
| CCOC(=O)C12CC1/C(=N/O)c1ccccc1O2 (stereo unspecified) | -5.97% |
| N[C@H](C(=O)O)c1cc(O)cc(O)c1 | 3.16% |
| Cc1cccc(C#Cc2ccccc2)n1 | -5.26% |
| CC(C)(C)[C@]1(O)CCN2C[C@H]3c4ccccc4CCc4cccc(c43)[C@@H]2C1 | 1.27% and 2.06% |
| Nc1nc2[nH]c(=O)cnc2c(=O)[nH]1 | -1.79% |
| Nc1ccc(S(=O)(=O)Nc2ccnn2-c2ccccc2)cc1 | 6.12% |
| O=C(O)C1=CCCNC1 | -7.61% |
| NCCNC(=O)c1ncsc1-c1cccc(F)c1 | -0.21% |
| COc1ccccc1N1CCN(CCCCNS(=O)(=O)c2cccc3c(N(C)C)cccc23)CC1 | -1.2% |
| NC(=O)N1c2ccccc2C=Cc2ccccc21 | -2.49% |
| N=C1Sc2ccccc2C2=NCCCN12 | 9.23% |
| CNC(=O)c1cc2c(cn1)[nH]c1ccccc12 | -5.81% |
| COc1ccc(NC(=O)/C=C/c2ccc(Cl)cc2)cc1 | 5.78% |
| CCC(=O)N1CCN(C(=O)c2ccccc2)CC1 | 1.98% |
| CC(=O)c1ccc(S(=O)(=O)NC(=O)NC2CCCCC2)cc1 | -0.49% |
| CCCNC(C)C(=O)Nc1ccccc1C (stereo unspecified) | 4.81% |
| CNc1ncnc2c1ncn2[C@H]1C[C@H](OP(=O)(O)O)[C@@H](COP(=O)(O)O)O1 | 0.31% |
| O=C(N[C@@H](Cc1ccccc1)C(=O)CCl)OCc1ccccc1 | 8.56% |
| CC(COc1ccc(/C=C/c2ccccc2)cc1)[N+](C)(C)C (stereo unspecified) | 7.87% |
| c1ccc(C2CN3CCSC3=N2)cc1 (stereo unspecified) | 3.61% |

| Compound | inhibition |
| --- | --- |
| CCNC(=O)N1CCN(CCCC(c2ccc(F)cc2)c2ccc(F)cc2)CC1 | -1.44% |
| Fc1ccc(C(OCCCc2cnc[nH]2)c2ccc(F)cc2)cc1 | 0.61% |
| O=C1CCC(c2ccc(-n3ccnc3)cc2)=NN1 | 7.46% |
| COc1cc2c(cc1OC)-c1cc(=Nc3c(C)cc(C)cc3C)n(C)c(=O)n1CC2 | 6.66% |
| NCCCCCCCCCCN | -0.23% |
| OCCN1CCN(CCCN2c3ccccc3Sc3ccc(Cl)cc32)CC1 | 0.17% |
| C#C[C@]1(O)CC[C@H]2[C@@H]3CCC4=Cc5oncc5CC4(C)[C@H]3CCC21C (stereo partly specified) | -1.88% |
| CCC1(O)CC2CN(CCc3c([nH]c4ccccc34)[C@@](C(=O)OC)(c3cc4c(cc3OC)N(C)C3[C@]45CCN4CC=C[C@@](CC)([C@@H](OC(C)=O)[C@]3(O)C(=O)OC)[C@H]45)C2)C1 (stereo partly specified) | -0.77% |
| O=c1oc(Cl)c(Cl)c2ccccc12 | -3.11% |
| COc1nc(C)nc(Cl)c1NC1=NCCN1 | -1.51% |
| N[C@H](CCC(=O)NCS(=O)(=O)O)C(=O)O | -0.86% |
| N#CC(C#N)=C(N)/C(C#N)=C/c1ccc(O)cc1 | 1.29% |
| NCCS(=O)(=O)O | 1.37% |
| CCN(CC)CCNC(=O)c1cc(S(C)(=O)=O)ccc1OC | -0.06% |
| C#CCN(C)Cc1ccccc1 | -1.02% |
| O=c1[nH]c2ccccc2c2ccccc12 | -1.72% |
| O=C(NCCNCC(O)COc1ccc(O)cc1)N1CCOCC1 (stereo unspecified) | -0.58% |
| COc1ccc2[nH]cc(CCNC(C)=O)c2c1 | 0.03% |
| O=Nc1c(-c2c(O)[nH]c3ccccc23)[nH]c2ccccc12 | -6.98% |
| COc1ccc(C(=O)NCc2cccnc2)cc1C(=O)NCc1cccnc1 | -0.25% |
